From paper PMC9559323
No constants are given. Whether binding was seen depends on the method and setting. Binding seen in cells or lysates may run through a third protein. Here binding means that the protein was enriched with, or labelled near, the bait; the list need not be complete.

B1: Rab3A (protein, UniProt P20336 1-220)
chain: MASATDSRYGQKESSDQNFDYMFKILIIGNSSVGKTSFLFRYADDSFTPAFVSTVGIDFKVKTIYRNDKRIKLQIWDTAGQERYRTITTAYYRGAMGFILMYDITNEESFNAVQDWSTQIKTYSWDNAQVLLVGNKCDMEDERVVSSERGRQLADHLGFEFFEASAKDNINVKQTFERLVDVICEKMSESLDTADPAVTGAKQGPQLSDQQVPPHQDCAC
B2: Rab12 (protein, UniProt Q6IQ22 1-340)
chain: MLLPLLRSSCFPSSSPGGGGGSGGGGGGGDPGAESRPAAQLQRGAHGPPGPLQRAEAEPGADPPRAAEAEGAPGPGARSRGAGGGGRRAEREPHACMDPGAALQRRAGGGGGLGAGSPALSGGQGRRRKQPPRPADFKLQVIIIGSRGVGKTSLMERFTDDTFCEACKSTVGVDFKIKTVELRGKKIRLQIWDTAGQERFNSITSAYYRSAKGIILVYDITKKETFDDLPKWMKMIDKYASEDAELLLVGNKLDCETDREITRQQGEKFAQQITGMRFCEASAKDNFNVDEIFLKLVDDILKKMPLDILRNELSNSILSLQPEPEIPPELPPPRPHVRCC
B3: Tim10 (protein, UniProt P62072 1-90)
chain: MDPLRAQQLAAELEVEMMADMYNRMTSACHRKCVPPHYKEAELSKGESVCLDRCVSKYLDIHERMGKKLTELSMQDEELMKRVQQSSGPA
B4: endogenous active Bcr related (ABR) protein (protein, UniProt Q12979 1-859)
chain: MEPLSHRGLPRLSWIDTLYSNFSYGTDEYDGEGNEEQKGPPEGSETMPYIDESPTMSPQLSARSQGGGDGVSPTPPEGLAPGVEAGKGLEMRKLVLSGFLASEEIYINQLEALLLPMKPLKATATTSQPVLTIQQIETIFYKIQDIYEIHKEFYDNLCPKVQQWDSQVTMGHLFQKLASQLGVYKAFVDNYKVALETAEKCSQSNNQFQKISEELKVKGPKDSKDSHTSVTMEALLYKPIDRVTRSTLVLHDLLKHTPVDHPDYPLLQDALRISQNFLSSINEDIDPRRTAVTTPKGETRQLVKDGFLVEVSESSRKLRHVFLFTDVLLCAKLKKTSAGKHQQYDCKWYIPLADLVFPSPEESEASPQVHPFPDHELEDMKMKISALKSEIQKEKANKGQSRAIERLKKKMFENEFLLLLNSPTIPFRIHNRNGKSYLFLLSSDYERSEWREAIQKLQKKDLQAFVLSSVELQVLTGSCFKLRTVHNIPVTSNKDDDESPGLYGFLHVIVHSAKGFKQSANLYCTLEVDSFGYFVSKAKTRVFRDTAEPKWDEEFEIELEGSQSLRILCYEKCYDKTKVNKDNNEIVDKIMGKGQIQLDPQTVETKNWHTDVIEMNGIKVEFSMKFTSRDMSLKRTPSKKQTGVFGVKISVVTKRERSKVPYIVRQCVEEVEKRGIEEVGIYRISGVATDIQALKAVFDANNKDILLMLSDMDINAIAGTLKLYFRELPEPLLTDRLYPAFMEGIALSDPAAKENCMMHLLRSLPDPNLITFLFLLEHLKRVAEKEPINKMSLHNLATVFGPTLLRPSEVESKAHLTSAADIWSHDVMAQVQVLLYYLQHPPISFAELKRNTLYFSTDV

What follows are binders tested against translocated EspHwt (SBP-tagged EspH) (enteropathogenic Escherichia coli (EPEC)) (assay: affinity purification with mass spectrometry; HeLa cells infected 90 min at 37°C with EPEC strains; SBP-tagged translocated EspH precipitated from lysates (50 mM Tris pH 7.4, 150 mM NaCl, 0.5% NP-40) with StAv agarose beads, 4 hrs at 4°C; on-bead digestion, LC-MS/MS, label-free quantification).
For B1, the binding was “binds”.
B2 was tested, and the binding was “binds”.
For B3, the binding was “binds”.
B4 was tested, and the binding was “binds”.
